In article PMC3716638:
No constants are given. Whether binding was seen depends on the method and setting. For part of these data: In cells and extracts the contact can be indirect. Some binding calls cover weakened binding; strength is not graded here.

The chains behind the UniProt entries cited, without tags or fusion partners. Residues count along the entry.
UniProt Q03405, residues 23-305: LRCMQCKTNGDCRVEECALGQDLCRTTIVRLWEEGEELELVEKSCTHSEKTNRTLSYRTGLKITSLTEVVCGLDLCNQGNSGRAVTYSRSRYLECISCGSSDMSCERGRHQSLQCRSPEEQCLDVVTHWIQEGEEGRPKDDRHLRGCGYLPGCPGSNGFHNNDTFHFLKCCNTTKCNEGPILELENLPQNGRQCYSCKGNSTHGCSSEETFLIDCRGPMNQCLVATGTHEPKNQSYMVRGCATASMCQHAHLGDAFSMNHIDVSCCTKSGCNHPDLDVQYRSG
UniProt P06733: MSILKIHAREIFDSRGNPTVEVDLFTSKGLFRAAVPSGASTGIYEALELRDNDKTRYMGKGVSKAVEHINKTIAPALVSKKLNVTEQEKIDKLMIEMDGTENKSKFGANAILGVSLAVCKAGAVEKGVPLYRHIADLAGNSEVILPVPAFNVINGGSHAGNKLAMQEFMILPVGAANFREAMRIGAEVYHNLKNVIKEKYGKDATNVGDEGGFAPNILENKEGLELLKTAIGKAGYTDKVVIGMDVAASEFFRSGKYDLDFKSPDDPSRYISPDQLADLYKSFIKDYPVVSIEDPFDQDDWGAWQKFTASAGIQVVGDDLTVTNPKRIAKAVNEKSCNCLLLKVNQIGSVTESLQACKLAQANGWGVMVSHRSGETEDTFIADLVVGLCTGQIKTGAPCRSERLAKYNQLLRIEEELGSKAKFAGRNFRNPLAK

Key:
[1] = target: ovalbumin (OVA) (UniProt P01012); test: far-Western, overlay or dot blot; cell-free dot blot: 1 µg of each protein (PLG, ENO1, uPAR, uPA, OVA) dotted on nitrocellulose, blocked with 5% BSA/PBS, each strip incubated with 1 µg/ml of uPA, uPAR, ENO1 or PLG in PBS for 1 h at room temperature, washed with PBS 0.1% Tween 20, detected with the Ab against the soluble protein and ECL; both purified
[2] = target: urokinase-type plasminogen activator receptor (uPAR), endogenous in human PE089 lung cancer cells (human (endogenous in PE089)) (UniProt Q03405); test: co-IP; 50 µg cell lysate of PE089 or LLC/luc incubated with 2 µg anti-plasminogen, anti-uPA, anti-uPAR or isotype-control Ab overnight at 4°C, protein A/G Sepharose; blot probed with anti-human ENO1 Ab or mENO1 Ab
[3] = target: urokinase-type plasminogen activator receptor (uPAR), endogenous in human PE089 lung cancer cells (human (endogenous in PE089)) (UniProt Q03405); test: proximity ligation; Duolink in situ PLA on paraformaldehyde-fixed LLC/luc and PE089 cells; ENO1-specific Ab together with Ab against uPA, uPAR or PLG; signal means the two proteins are within 40 nm

binding [1] | binding [2] | binding [3] | Substance
no binding (tested: 1 µg/ml) | – | – | urokinase-type plasminogen activator receptor (uPAR), protein used in the cell-free dot blotting assay (from UniProt Q03405 23-305)
– | binds | binds | α-enolase (ENO1), endogenous in human PE089 lung cancer cells (from UniProt P06733 1-434)
